Test results taken from patent publication US5147856A, “Method for inhibiting blood vessel blockage using octapeptide compositions” (Societe de Conseils de Recherches et d'Applications …, priority 1988, dated 1992).
Not every detail of the peptide structures is certain; ends, links or a residue may be inferred. Bridge positions count the residues as written; N and C are the ends. Square brackets hold non-standard residues; d marks the D form. Peptide text beside a SMILES is read from it. 2Nal = N[C@@H](Cc1ccc2ccccc2c1)C(=O)O

Key:
[1] = tested on: myointimal proliferation of the carotid artery; test: Air-drying injury of the rat carotid artery, intimal/media ratio (Example 2); assay type: in vivo; details: for Intimal/Media Ratio: from two days prior to injury and five days postinjury, sacrifice day 15, mean ± SE
Description: Male Sprague-Dawley rats, weighing […], obtained from Charles River were kept under controlled lighting conditions and fed rat chow and water ad libitum. Under sodium pentobarbital anesthesia the intima of the right carotid artery was subjected to an air-drying injury described by Fishman et al, Lab Invest., 32, 339 (1975). The procedure causes intimal hyperplasia that largely consists of proliferating intimal smooth muscle cells. In this model approximately 4 cm of the vessel is isolated and drained of blood. Air (20 ml/min) is blown through a 30 gauge needle for 5 min whereafter blood flow is reestablished. The contralateral carotid artery was also exposed but not air-dried. The rats were sacrificed 15 days later.
The experiment consisted of a control group and ten treatment groups. The somatostatin analogs used were hepta- or octapeptides, namely BIM 23014 (Angiopeptin), BIM 23012, BIM 23027, BIM 23030 and BIM 23034. […] The animals were pretreated two days prior to the procedure and for a further five days following the endothelial injury. Two additional groups of animals were added in order to study whether Angiopeptin (20 μg/kg/day and 50 μg/kg/day) administered 30 min prior to the endothelial injury and for a further five days would protect against the myointimal proliferation.
The animals were sacrificed on day 15 following the injury by exsanguination. The vascular system was flushed with normal saline and perfusion-fixed at 80 mmHg with 10% formalin. The carotid arteries were subsequently fixed, embedded and sectioned for light microscopy and morphometric analysis. The maximal intimal/media ratio is the distance from the lumen to the internal elastic lamina and the distance from the internal elastic lamina to the external elastic lamina. The distances were determined in each vessel using a digitizing system attached to a light microscope. The determinations were performed on three different cross sections of the vessel and each section was measured three times. The mean was calculated for each vessel. Differences between the groups were evaluated using Student's unpaired t-test.

[2] = tested on: growth hormone release; details: rats; compared to somatostatin 14 (=1); cited from earlier work

## CC(C)[C@@H]1NC(=O)[C@H](CCCCN)NC(=O)[C@@H](Cc2c[nH]c3ccccc23)NC(=O)[C@H](Cc2ccc(O)cc2)NC(=O)[C@@H](NC(=O)[C@H](N)Cc2ccccc2)CSSC[C@@H](C(=O)N[C@@H](Cc2ccc3ccccc3c2)C(N)=O)NC1=O [BIM 23034, D-Phe--Cys--Tyr-D-Trp--Lys--Val--Cys--Nal--NH2] (H-[dF]CY[dW]KVC[2Nal]-NH2; disulfide 2-7)
[1]; 20 μg/kg/day s.c. in two divided doses
  Intimal/Media Ratio: 1.9 ± 0.2
[1]; 50 μg/kg/day s.c. in two divided doses
  Intimal/Media Ratio: 1.2 ± 0.5
[1]; administered from two days prior to injury, at the doses used (20 and 50 μg/kg/day)
  Inhibition of myointimal (smooth muscle cell) proliferation of the carotid artery, in words: inhibited significantly
[1]; high dose 50 μg/kg/day, from two days prior to injury
  Inhibition of myointimal proliferation, in words: effective
[2]
  Potency for growth hormone suppression in vivo, relative to somatostatin 14: 2
